Laboratory results reported in PMC11589570, “Critical assessment of LC3/GABARAP ligands used for degrader development and ligandability of LC3/GABARAP binding pockets” (Nature Communications, 2024).
“And” between values parts separate entries of the source, which are not always exact repeats. Equal values may be shown once. The source gives many values for each of these; only a part stands here.

Test system: RPE1 cells
Assay: Cell growth assay (IncuCyte confluence over 72 h)
Assay type: cell-based
Description: Cell growth assay: Cell confluence (phase) from RPE1 (hTERT RPE-1, ATCC CLR_4000) or U2OS (ATCC, HTB-96) cell lines were monitored over time with the IncuCyte S3 (Sartiorius, Germany) in 384-well plates in 50 ul DMEM media, supplemented with 10% Fetal Bovine Serum (FBS) 1% penicillin/Streptomycin and incubated 24 h before treatment. Experiment was performed as described in Cano-Franco et al.. 50 μl of media containing either 2× final concentration of indicated compounds in or control compounds (final conc.: 0.1% DMSO, 250 nM Torin1, 200 ng/mL Bafilomycin) were added and images were taken every two hours over 72 h. Cell confluence is represented as % of area covered by cells. Each data point represents the average ratio or confluence obtained from three individual wells of the plate.

O=C1CC(c2ccc(Cl)c(Cl)c2)CC(=O)C1=CNCCN1CCNCC1 (stereo not drawn) [Cov-3]
RPE1 cell growth (100 nM, 16 h): 27 and 37 and 22
RPE1 cell growth (100 nM, 18 h): 26 and 40 and 21
RPE1 cell growth (100 nM, 20 h): 26 and 45 and 24
RPE1 cell growth (100 nM, 22 h): 27 and 46 and 25
RPE1 cell growth (100 nM, 24 h): 28 and 51 and 26
RPE1 cell growth (100 nM, 28 h): 35 and 60 and 30
RPE1 cell growth (100 nM, 32 h): 39 and 67 and 35
RPE1 cell growth (100 nM, 34 h): 42 and 71 and 39
RPE1 cell growth (100 nM, 36 h): 44 and 75 and 39
RPE1 cell growth (100 nM, 38 h): 46 and 81 and 45
RPE1 cell growth (100 nM, 40 h): 50 and 85 and 48
RPE1 cell growth (100 nM, 42 h): 57 and 88 and 49
RPE1 cell growth (100 nM, 44 h): 62 and 91 and 53
RPE1 cell growth (100 nM, 46 h): 62 and 94 and 60
RPE1 cell growth (100 nM, 48 h): 65 and 96 and 66
RPE1 cell growth (100 nM, 50 h): 74 and 97 and 65
RPE1 cell growth (100 nM, 52 h): 79 and 99 and 71
RPE1 cell growth (100 nM, 54 h): 82 and 99 and 76
RPE1 cell growth (100 nM, 56 h): 82 and 100 and 79
RPE1 cell growth (100 nM, 58 h): 90 and 100 and 83
RPE1 cell growth (100 nM, 60 h): 92 and 100 and 87
RPE1 cell growth (100 nM, 62 h): 94 and 100 and 86
RPE1 cell growth (100 nM, 66 h): 97 and 100 and 95
RPE1 cell growth (100 nM, 68 h): 98 and 100 and 95
RPE1 cell growth (100 nM, 70 h): 97 and 100 and 98
RPE1 cell growth (100 nM, 72 h): 100 and 99
RPE1 cell growth (500 nM, 16 h): 28 and 40 and 22
RPE1 cell growth (500 nM, 18 h): 28 and 43 and 23
RPE1 cell growth (500 nM, 20 h): 29 and 47 and 25
RPE1 cell growth (500 nM, 22 h): 30 and 48 and 27
RPE1 cell growth (500 nM, 24 h): 31 and 53 and 27
RPE1 cell growth (500 nM, 26 h): 34 and 56 and 31
RPE1 cell growth (500 nM, 28 h): 37 and 62 and 35
RPE1 cell growth (500 nM, 30 h): 37 and 65 and 35
RPE1 cell growth (500 nM, 32 h): 42 and 70 and 38
RPE1 cell growth (500 nM, 34 h): 45 and 73 and 43
RPE1 cell growth (500 nM, 36 h): 48 and 77 and 44
RPE1 cell growth (500 nM, 38 h): 51 and 81 and 50
RPE1 cell growth (500 nM, 40 h): 56 and 85 and 54
RPE1 cell growth (500 nM, 42 h): 60 and 89 and 57
RPE1 cell growth (500 nM, 44 h): 65 and 92 and 62
RPE1 cell growth (500 nM, 46 h): 67 and 95 and 66
RPE1 cell growth (500 nM, 48 h): 70 and 97 and 67
RPE1 cell growth (500 nM, 50 h): 76 and 98 and 75
RPE1 cell growth (500 nM, 52 h): 81 and 99 and 78
RPE1 cell growth (500 nM, 54 h): 85 and 99 and 83
RPE1 cell growth (500 nM, 56 h): 87 and 100 and 86
RPE1 cell growth (500 nM, 58 h): 91 and 100 and 89
RPE1 cell growth (500 nM, 60 h): 94 and 100 and 92
RPE1 cell growth (500 nM, 62 h): 95 and 100 and 92
RPE1 cell growth (500 nM, 66 h): 98 and 100 and 97
RPE1 cell growth (500 nM, 68 h): 99 and 100
RPE1 cell growth (500 nM, 70 h): 99 and 100 and 98
RPE1 cell growth (500 nM, 72 h): 100
RPE1 cell growth (1 uM, 14 h): 20 and 21 and 38
RPE1 cell growth (1 uM, 16 h): 22 and 24 and 39
RPE1 cell growth (1 uM, 18 h): 22 and 25 and 43
RPE1 cell growth (1 uM, 20 h): 25 and 26 and 46
RPE1 cell growth (1 uM, 22 h): 26 and 27 and 49
RPE1 cell growth (1 uM, 24 h): 28 and 29 and 53
RPE1 cell growth (1 uM, 26 h): 31 and 32 and 57
RPE1 cell growth (1 uM, 28 h): 34 and 61
RPE1 cell growth (1 uM, 30 h): 37 and 36 and 66
RPE1 cell growth (1 uM, 32 h): 40 and 39 and 71
RPE1 cell growth (1 uM, 34 h): 43 and 74
RPE1 cell growth (1 uM, 36 h): 45 and 46 and 77
RPE1 cell growth (1 uM, 38 h): 48 and 82
RPE1 cell growth (1 uM, 40 h): 53 and 52 and 87
RPE1 cell growth (1 uM, 42 h): 56 and 55 and 90
RPE1 cell growth (1 uM, 44 h): 61 and 62 and 93
RPE1 cell growth (1 uM, 46 h): 65 and 96
RPE1 cell growth (1 uM, 48 h): 69 and 67 and 98
RPE1 cell growth (1 uM, 50 h): 72 and 74 and 99
RPE1 cell growth (1 uM, 52 h): 78 and 77 and 99
RPE1 cell growth (1 uM, 54 h): 81 and 82 and 100
RPE1 cell growth (1 uM, 56 h): 84 and 86 and 100
RPE1 cell growth (1 uM, 58 h): 87 and 89 and 100
RPE1 cell growth (1 uM, 60 h): 90 and 93 and 100
RPE1 cell growth (1 uM, 62 h): 92 and 94 and 100
RPE1 cell growth (1 uM, 64 h): 95 and 96 and 67
RPE1 cell growth (1 uM, 66 h): 98 and 100
RPE1 cell growth (1 uM, 68 h): 99 and 98 and 100
RPE1 cell growth (1 uM, 70 h): 99 and 100
RPE1 cell growth (1 uM, 72 h): 99 and 100
RPE1 cell growth (3 uM, 14 h): 28 and 34 and 22
RPE1 cell growth (3 uM, 16 h): 31 and 36 and 23
RPE1 cell growth (3 uM, 18 h): 33 and 39 and 24
RPE1 cell growth (3 uM, 20 h): 33 and 44 and 28
RPE1 cell growth (3 uM, 22 h): 34 and 44 and 28
RPE1 cell growth (3 uM, 24 h): 36 and 50 and 30
RPE1 cell growth (3 uM, 26 h): 39 and 54 and 33
RPE1 cell growth (3 uM, 28 h): 42 and 58 and 37
RPE1 cell growth (3 uM, 30 h): 44 and 61 and 39
RPE1 cell growth (3 uM, 32 h): 48 and 67 and 43
RPE1 cell growth (3 uM, 34 h): 52 and 71 and 47
RPE1 cell growth (3 uM, 36 h): 57 and 74 and 51
RPE1 cell growth (3 uM, 38 h): 59 and 79 and 54
RPE1 cell growth (3 uM, 40 h): 62 and 84 and 58
RPE1 cell growth (3 uM, 42 h): 66 and 88 and 62
RPE1 cell growth (3 uM, 44 h): 72 and 91 and 67
RPE1 cell growth (3 uM, 46 h): 74 and 95 and 71
RPE1 cell growth (3 uM, 48 h): 78 and 96 and 75
RPE1 cell growth (3 uM, 50 h): 83 and 98 and 78
RPE1 cell growth (3 uM, 52 h): 87 and 99 and 83
RPE1 cell growth (3 uM, 54 h): 90 and 99 and 86
RPE1 cell growth (3 uM, 56 h): 92 and 100 and 89
RPE1 cell growth (3 uM, 58 h): 95 and 100 and 93
RPE1 cell growth (3 uM, 60 h): 97 and 100 and 95
RPE1 cell growth (3 uM, 62 h): 97 and 100 and 96
RPE1 cell growth (3 uM, 64 h): 98
RPE1 cell growth (3 uM, 66 h): 99 and 100
RPE1 cell growth (3 uM, 68 h): 99 and 100
RPE1 cell growth (3 uM, 70 h): 99 and 100
RPE1 cell growth (3 uM, 72 h): 100
RPE1 cell growth (5 uM, 14 h): 25 and 35 and 22
RPE1 cell growth (5 uM, 16 h): 27 and 35 and 24
RPE1 cell growth (5 uM, 18 h): 28 and 39 and 25
RPE1 cell growth (5 uM, 20 h): 29 and 43 and 26
RPE1 cell growth (5 uM, 22 h): 32 and 44 and 27
RPE1 cell growth (5 uM, 24 h): 33 and 49 and 30
RPE1 cell growth (5 uM, 26 h): 35 and 51 and 32
RPE1 cell growth (5 uM, 28 h): 36 and 56
RPE1 cell growth (5 uM, 30 h): 39 and 62
RPE1 cell growth (5 uM, 32 h): 42 and 67
RPE1 cell growth (5 uM, 34 h): 45 and 71 and 46
RPE1 cell growth (5 uM, 36 h): 47 and 73 and 49
RPE1 cell growth (5 uM, 38 h): 50 and 78 and 52
RPE1 cell growth (5 uM, 40 h): 54 and 82 and 57
RPE1 cell growth (5 uM, 42 h): 58 and 85 and 60
RPE1 cell growth (5 uM, 44 h): 61 and 90 and 64
RPE1 cell growth (5 uM, 46 h): 65 and 93 and 68
RPE1 cell growth (5 uM, 48 h): 70 and 96 and 73
RPE1 cell growth (5 uM, 50 h): 74 and 98 and 76
RPE1 cell growth (5 uM, 52 h): 79 and 99 and 81
RPE1 cell growth (5 uM, 54 h): 83 and 99 and 87
RPE1 cell growth (5 uM, 56 h): 85 and 100 and 89
RPE1 cell growth (5 uM, 58 h): 89 and 100 and 92
RPE1 cell growth (5 uM, 60 h): 92 and 100 and 94
RPE1 cell growth (5 uM, 62 h): 93 and 100 and 96
RPE1 cell growth (5 uM, 64 h): 96 and 100 and 98
RPE1 cell growth (5 uM, 66 h): 98 and 100 and 99
RPE1 cell growth (5 uM, 68 h): 99 and 100
RPE1 cell growth (5 uM, 70 h): 99 and 100
RPE1 cell growth (5 uM, 72 h): 100
RPE1 cell growth (10 uM, 14 h): 27 and 35 and 25
RPE1 cell growth (10 uM, 16 h): 29 and 34 and 27
RPE1 cell growth (10 uM, 18 h): 30 and 38 and 27
RPE1 cell growth (10 uM, 20 h): 33 and 41 and 30
RPE1 cell growth (10 uM, 22 h): 34 and 43 and 30
RPE1 cell growth (10 uM, 24 h): 36 and 47 and 34
RPE1 cell growth (10 uM, 26 h): 39 and 51 and 36
RPE1 cell growth (10 uM, 28 h): 41 and 56
RPE1 cell growth (10 uM, 30 h): 42 and 59 and 44
RPE1 cell growth (10 uM, 32 h): 46 and 64 and 47
RPE1 cell growth (10 uM, 34 h): 50 and 68 and 51
RPE1 cell growth (10 uM, 36 h): 53 and 72
RPE1 cell growth (10 uM, 38 h): 56 and 77 and 58
RPE1 cell growth (10 uM, 40 h): 59 and 80 and 62
RPE1 cell growth (10 uM, 42 h): 63 and 83 and 66
RPE1 cell growth (10 uM, 44 h): 67 and 89 and 70
RPE1 cell growth (10 uM, 46 h): 71 and 92 and 75
RPE1 cell growth (10 uM, 48 h): 75 and 95 and 79
RPE1 cell growth (10 uM, 50 h): 79 and 97 and 82
RPE1 cell growth (10 uM, 52 h): 83 and 98 and 86
RPE1 cell growth (10 uM, 54 h): 87 and 99 and 90
RPE1 cell growth (10 uM, 56 h): 90 and 99 and 93
RPE1 cell growth (10 uM, 58 h): 93 and 99 and 95
RPE1 cell growth (10 uM, 60 h): 95 and 100 and 97
RPE1 cell growth (10 uM, 62 h): 96 and 100 and 98
RPE1 cell growth (10 uM, 64 h): 97 and 100 and 99
RPE1 cell growth (10 uM, 66 h): 98 and 100
RPE1 cell growth (10 uM, 68 h): 99 and 100
RPE1 cell growth (10 uM, 70 h): 99 and 100
RPE1 cell growth (10 uM, 72 h): 100
